Assay results as given in publication PMC3256188, “Novel Nonphosphorylated Peptides with Conserved Sequences Selectively Bind to Grb7 SH2 Domain with Affinity Comparable to Its Phosphorylated Ligand” (PLoS ONE, 2012).
Results are given in words; binding and its absence hold for the method and conditions named. For some assays here: In cells and extracts the contact can be indirect. Some binding calls cover weakened binding; strength is not graded here. For some assays here: Tags and fused reporters may be left off the sequences shown.

What was measured:
10CM-mRLUC-3×Flag = target: T1, 10CM-mRLUC-3×Flag; assay: co-IP; HEK293T co-transfected; lysate (1% NP-40, 0.5% deoxycholate, 0.1% SDS, 0.15 M NaCl, pH 7.5); precipitated with anti-Flag antibody and protein G agarose at 4°C, blotted with anti-GFP
T1 sequence: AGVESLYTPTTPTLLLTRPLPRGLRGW

41-mRLUC-3×Flag [1] = target: T2, 41-mRLUC-3×Flag; assay: as above
T2 sequence: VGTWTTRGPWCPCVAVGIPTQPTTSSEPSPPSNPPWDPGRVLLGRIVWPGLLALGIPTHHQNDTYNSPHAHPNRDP

41-mRLUC-3×Flag [2] = target: T2, 41-mRLUC-3×Flag; assay: co-IP; competition experiment, the complex of GFP-Grb7 SH2 and 41-mRLUC-3×Flag from transfected HEK293T without competing peptide
[3] = target: GAL4 BD-Grb7 SH2 domain (human); assay: two-hybrid; GAL4 BD-SH2 bait and AD peptide in yeast strain CG1945; selection on SD/-Trp-His-Leu, retransformation and improved LacZ assay

Row | Binder | binding (10CM-mRLUC-3×Flag) | binding (41-mRLUC-3×Flag [1]) | binding (41-mRLUC-3×Flag [2]) | binding [3]
1 | EGFP-Grb7 SH2 (domain or fragment) IHRTQLWFHGRISREESQRLIGQQGLVDGLFLVRESQRNPQGFVLSLCHLQKVKHYLILPSEEEGRLYFSMDDGQTRFTDLLQLVEFHQLNRGILPCLLRHCCTRVAL | no binding | binds | binds | 
2 | AGVESLGIPNYTPTTPTLLLTRPLPRGLRGW [peptide 10BM (C-terminal conserved GIP of peptide 10 deleted), two-hybrid form] |  |  |  | no binding
3 | AGVESLYTPTTPTLLLTRPLPRGLRGW [peptide 10CM (both conserved ends of peptide 10 deleted), two-hybrid form] |  |  |  | no binding
